Experimental findings from publication PMC7564595 are described below.

By UniProt entry, the sequences of proteins in these tests, tags left out. Where a name states a change or a piece, a line headed by the entry shows the natural chain unless it says otherwise.
UniProt P23258: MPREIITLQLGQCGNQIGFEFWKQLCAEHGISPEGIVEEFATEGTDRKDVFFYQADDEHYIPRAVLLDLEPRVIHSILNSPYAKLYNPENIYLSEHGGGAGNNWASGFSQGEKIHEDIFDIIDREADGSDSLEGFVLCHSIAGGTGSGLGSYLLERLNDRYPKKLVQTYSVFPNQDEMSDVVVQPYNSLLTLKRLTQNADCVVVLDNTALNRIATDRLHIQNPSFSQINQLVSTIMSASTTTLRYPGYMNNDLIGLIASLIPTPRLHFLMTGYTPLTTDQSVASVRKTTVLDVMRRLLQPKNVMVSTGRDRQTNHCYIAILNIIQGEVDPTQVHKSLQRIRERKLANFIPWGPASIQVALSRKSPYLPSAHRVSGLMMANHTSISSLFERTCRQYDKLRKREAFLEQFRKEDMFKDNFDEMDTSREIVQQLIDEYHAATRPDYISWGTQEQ

Results are given in words; binding and its absence hold for the method and conditions named. Binding seen in cells or lysates may run through a third protein. A result given as binding can be weak or reduced; the word gives no strength. Tags and fused reporters may be left off the sequences shown.

Assay [1] deals with T1, SIRT4-eGFP (human) (UniProt Q9Y6E7).
T1 sequence: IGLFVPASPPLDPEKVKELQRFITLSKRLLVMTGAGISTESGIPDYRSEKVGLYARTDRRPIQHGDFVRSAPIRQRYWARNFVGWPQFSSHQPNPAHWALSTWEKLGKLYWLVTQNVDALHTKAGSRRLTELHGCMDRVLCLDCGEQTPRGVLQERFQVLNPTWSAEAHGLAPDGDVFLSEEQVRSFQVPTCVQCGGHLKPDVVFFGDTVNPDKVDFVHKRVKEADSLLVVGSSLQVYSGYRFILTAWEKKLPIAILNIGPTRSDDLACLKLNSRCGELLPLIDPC
As to the kind of experiment: co-IP; anti-eGFP nanobody co-immunoprecipitation from total cell lysates (0.3% CHAPS lysis buffer) of mitotically synchronized HEK293 cells expressing SIRT4-eGFP or eGFP; immunoblot.

Assay [2] addresses α-tubulin (human (endogenous in HEK293)). Description: co-IP; immunoprecipitation with rabbit anti-α-tubulin antibody (ab52899) and Protein A/G Sepharose from total cell lysates (0.3% CHAPS) of stably transfected HEK293 cells; control without antibody.
The target of assay [3] is Taxol-stabilized microtubules (human (endogenous in HEK293)). Description: co-sedimentation; Taxol-stabilized microtubules (1 mM GTP, 20 µM Paclitaxel, 30 min at room temperature) pelleted from the cytosolic fraction of asynchronously growing HEK293 cells through 15% sucrose in PHEM buffer pH 6.8; immunoblot of supernatant and pellet. Background: In western blotting, separated proteins are transferred to a membrane and probed.

For the molecule “α-tubulin (human (endogenous in HEK293))”, the binding entry in assay [1] is recorded as “binds”.

For the molecule “β-tubulin (human (endogenous in HEK293))”, in assay [1], the binding result is given as “binds”. The same measure, in the same setting: for γ-tubulin (from UniProt P23258) the value was “binds”.

B1: SIRT4-eGFP (protein, UniProt Q9Y6E7 29-314)
chain: IGLFVPASPPLDPEKVKELQRFITLSKRLLVMTGAGISTESGIPDYRSEKVGLYARTDRRPIQHGDFVRSAPIRQRYWARNFVGWPQFSSHQPNPAHWALSTWEKLGKLYWLVTQNVDALHTKAGSRRLTELHGCMDRVLCLDCGEQTPRGVLQERFQVLNPTWSAEAHGLAPDGDVFLSEEQVRSFQVPTCVQCGGHLKPDVVFFGDTVNPDKVDFVHKRVKEADSLLVVGSSLQVYSGYRFILTAWEKKLPIAILNIGPTRSDDLACLKLNSRCGELLPLIDPC
On to B1, for which the binding result in assay [2] and in assay [3] was “binds” throughout.
